The entries are a selection whose mix differs from that of the whole data set. The data scatter; read single values as rough.
The targets below were run with COC(=O)/C=C/c1ccccc1 [methyl cinnamate] (assay: log2 ratio of iodoacetamide-alkyne labeling of the cysteine site, DMSO over compound (competition); higher = stronger covalent engagement of the cysteine by the compound, active = 1 or more). Conditions: 500 µM; treatment time 1 h; system: HEK293T cell lysate.
Summary of the method: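 Three replicates, each with duplicate channels, were prepared from HEK293T lysate (2 mg/mL) treated with vehicle or electrophile at 500 µM for 1 h at ambient temperature. Iodoacetamide alkyne was then applied for 1 h, and samples were clicked to sCIP-TMT reagents, pooled, trypsin-digested overnight at 37 °C, enriched on streptavidin, acid-eluted and analysed on Orbitrap Eclipse LC-MS/MS with FAIMS, with FragPipe quantification. The log2 competition ratio per cysteine is the mean control-channel divided by the mean compound-channel reporter intensity. Cysteines quantified in only one replicate were left out.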

Amino acid sequences for entries named in this document (tags omitted). A change or cut given only in a name is not applied to a line headed by its entry.
UniProt Q01780: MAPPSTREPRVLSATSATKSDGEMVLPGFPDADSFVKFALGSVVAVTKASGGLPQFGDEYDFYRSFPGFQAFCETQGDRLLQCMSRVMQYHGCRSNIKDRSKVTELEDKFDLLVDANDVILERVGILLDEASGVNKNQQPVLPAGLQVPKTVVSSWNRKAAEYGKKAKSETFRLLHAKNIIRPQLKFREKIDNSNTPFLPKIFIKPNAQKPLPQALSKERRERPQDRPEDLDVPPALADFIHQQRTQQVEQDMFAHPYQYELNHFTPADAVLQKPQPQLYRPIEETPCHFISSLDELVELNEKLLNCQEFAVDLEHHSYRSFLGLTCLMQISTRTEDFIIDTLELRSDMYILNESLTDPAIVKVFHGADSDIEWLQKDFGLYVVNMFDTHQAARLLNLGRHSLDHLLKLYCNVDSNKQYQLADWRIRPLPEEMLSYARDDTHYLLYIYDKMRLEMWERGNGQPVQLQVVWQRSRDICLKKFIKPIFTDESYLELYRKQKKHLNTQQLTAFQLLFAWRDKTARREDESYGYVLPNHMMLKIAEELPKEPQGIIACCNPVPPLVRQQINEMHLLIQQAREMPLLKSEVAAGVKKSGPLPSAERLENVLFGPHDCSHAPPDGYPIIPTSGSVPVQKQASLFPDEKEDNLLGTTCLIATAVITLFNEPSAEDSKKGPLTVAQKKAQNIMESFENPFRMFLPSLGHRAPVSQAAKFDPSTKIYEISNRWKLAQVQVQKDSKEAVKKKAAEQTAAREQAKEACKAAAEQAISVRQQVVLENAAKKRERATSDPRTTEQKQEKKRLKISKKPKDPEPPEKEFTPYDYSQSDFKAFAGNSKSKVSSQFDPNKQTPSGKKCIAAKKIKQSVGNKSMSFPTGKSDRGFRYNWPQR
UniProt P68363, whole entry, looked up: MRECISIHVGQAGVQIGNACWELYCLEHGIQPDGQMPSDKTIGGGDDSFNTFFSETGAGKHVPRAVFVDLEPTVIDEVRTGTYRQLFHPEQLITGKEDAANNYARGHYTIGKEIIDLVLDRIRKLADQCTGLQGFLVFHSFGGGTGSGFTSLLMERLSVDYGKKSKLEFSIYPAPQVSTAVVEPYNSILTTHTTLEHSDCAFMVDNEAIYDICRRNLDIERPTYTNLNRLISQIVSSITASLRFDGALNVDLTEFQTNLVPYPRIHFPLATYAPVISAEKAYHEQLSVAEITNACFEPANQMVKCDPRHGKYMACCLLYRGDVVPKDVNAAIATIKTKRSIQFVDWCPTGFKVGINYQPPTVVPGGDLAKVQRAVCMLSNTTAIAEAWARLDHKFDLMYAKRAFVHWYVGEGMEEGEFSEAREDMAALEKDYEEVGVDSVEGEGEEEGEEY
UniProt Q00013: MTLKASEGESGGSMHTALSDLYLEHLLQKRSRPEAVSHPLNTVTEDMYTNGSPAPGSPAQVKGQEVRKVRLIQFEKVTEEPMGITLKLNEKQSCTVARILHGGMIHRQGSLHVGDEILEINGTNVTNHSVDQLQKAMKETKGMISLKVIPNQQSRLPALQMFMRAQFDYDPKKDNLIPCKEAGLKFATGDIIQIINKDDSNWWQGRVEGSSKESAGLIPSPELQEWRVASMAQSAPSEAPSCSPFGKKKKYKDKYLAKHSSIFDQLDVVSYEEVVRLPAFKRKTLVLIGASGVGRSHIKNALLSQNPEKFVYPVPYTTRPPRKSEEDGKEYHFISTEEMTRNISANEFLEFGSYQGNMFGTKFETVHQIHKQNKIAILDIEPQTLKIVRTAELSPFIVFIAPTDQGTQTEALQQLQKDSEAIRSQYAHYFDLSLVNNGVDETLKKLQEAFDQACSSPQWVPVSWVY
UniProt Q01813: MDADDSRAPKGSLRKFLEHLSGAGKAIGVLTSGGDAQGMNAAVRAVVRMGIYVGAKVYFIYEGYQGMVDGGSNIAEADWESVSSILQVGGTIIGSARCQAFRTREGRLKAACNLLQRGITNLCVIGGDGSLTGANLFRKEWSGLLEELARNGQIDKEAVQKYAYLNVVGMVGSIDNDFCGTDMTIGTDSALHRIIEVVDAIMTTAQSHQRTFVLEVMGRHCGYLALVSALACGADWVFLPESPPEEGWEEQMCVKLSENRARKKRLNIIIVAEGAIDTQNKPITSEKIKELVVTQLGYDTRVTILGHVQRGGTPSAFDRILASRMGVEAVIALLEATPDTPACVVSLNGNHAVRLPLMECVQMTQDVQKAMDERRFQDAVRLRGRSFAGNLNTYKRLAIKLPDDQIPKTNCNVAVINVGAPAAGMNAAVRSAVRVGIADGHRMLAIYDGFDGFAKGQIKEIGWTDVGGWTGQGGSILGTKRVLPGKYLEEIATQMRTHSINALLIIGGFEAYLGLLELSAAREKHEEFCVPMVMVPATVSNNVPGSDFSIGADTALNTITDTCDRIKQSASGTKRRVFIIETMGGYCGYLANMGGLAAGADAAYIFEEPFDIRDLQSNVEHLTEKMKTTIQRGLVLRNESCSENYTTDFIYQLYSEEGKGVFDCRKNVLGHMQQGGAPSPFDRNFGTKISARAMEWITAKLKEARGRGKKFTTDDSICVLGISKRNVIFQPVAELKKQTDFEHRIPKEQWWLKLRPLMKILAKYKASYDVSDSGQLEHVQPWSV
UniProt P68104, whole entry, looked up: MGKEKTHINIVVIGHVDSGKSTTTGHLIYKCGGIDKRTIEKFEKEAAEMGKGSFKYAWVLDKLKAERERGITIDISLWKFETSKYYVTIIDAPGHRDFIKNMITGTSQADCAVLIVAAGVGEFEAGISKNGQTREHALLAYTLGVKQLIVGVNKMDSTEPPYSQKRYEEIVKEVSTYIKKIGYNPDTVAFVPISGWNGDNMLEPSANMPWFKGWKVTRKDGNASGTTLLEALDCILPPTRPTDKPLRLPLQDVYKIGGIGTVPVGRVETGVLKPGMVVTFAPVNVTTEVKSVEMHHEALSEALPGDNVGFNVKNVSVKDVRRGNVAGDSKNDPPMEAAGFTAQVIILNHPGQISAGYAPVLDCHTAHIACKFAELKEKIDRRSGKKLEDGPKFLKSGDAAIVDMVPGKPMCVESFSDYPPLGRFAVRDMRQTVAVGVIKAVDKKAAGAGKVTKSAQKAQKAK
UniProt P63208, whole entry, looked up: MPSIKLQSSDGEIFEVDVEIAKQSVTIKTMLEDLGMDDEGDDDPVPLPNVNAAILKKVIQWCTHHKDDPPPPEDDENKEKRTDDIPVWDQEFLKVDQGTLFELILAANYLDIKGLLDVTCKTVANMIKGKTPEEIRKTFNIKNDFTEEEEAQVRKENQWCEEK
UniProt P63241: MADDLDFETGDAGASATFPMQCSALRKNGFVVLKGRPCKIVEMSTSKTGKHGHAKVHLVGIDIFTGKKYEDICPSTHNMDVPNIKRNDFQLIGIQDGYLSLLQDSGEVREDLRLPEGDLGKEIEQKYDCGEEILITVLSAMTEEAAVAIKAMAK
UniProt Q02218: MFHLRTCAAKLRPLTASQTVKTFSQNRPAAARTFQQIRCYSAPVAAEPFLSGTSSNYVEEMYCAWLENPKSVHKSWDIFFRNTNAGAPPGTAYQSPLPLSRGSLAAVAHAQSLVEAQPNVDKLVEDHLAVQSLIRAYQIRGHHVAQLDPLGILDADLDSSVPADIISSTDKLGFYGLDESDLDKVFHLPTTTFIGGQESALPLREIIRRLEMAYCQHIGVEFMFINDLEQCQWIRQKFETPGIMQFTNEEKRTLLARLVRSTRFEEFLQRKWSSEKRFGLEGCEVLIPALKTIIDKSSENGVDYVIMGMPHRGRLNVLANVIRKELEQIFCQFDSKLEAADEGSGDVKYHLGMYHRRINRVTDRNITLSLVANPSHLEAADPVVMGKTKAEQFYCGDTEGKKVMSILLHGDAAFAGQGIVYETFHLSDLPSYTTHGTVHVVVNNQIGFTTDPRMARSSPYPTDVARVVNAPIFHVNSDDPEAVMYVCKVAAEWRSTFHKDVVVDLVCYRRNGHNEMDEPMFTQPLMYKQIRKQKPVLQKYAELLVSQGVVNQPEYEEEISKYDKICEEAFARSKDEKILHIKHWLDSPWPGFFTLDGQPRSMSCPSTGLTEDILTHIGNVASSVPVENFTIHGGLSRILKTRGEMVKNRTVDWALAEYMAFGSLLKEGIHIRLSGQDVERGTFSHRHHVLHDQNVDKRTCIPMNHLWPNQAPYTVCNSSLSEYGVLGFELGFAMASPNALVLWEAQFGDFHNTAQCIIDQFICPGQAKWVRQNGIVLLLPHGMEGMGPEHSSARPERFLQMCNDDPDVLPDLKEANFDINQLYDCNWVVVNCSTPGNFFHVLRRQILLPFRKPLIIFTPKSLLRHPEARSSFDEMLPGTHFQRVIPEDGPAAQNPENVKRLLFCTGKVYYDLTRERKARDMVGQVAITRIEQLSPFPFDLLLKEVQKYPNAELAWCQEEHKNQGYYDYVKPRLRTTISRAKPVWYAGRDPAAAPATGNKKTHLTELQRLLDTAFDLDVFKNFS
UniProt Q01826: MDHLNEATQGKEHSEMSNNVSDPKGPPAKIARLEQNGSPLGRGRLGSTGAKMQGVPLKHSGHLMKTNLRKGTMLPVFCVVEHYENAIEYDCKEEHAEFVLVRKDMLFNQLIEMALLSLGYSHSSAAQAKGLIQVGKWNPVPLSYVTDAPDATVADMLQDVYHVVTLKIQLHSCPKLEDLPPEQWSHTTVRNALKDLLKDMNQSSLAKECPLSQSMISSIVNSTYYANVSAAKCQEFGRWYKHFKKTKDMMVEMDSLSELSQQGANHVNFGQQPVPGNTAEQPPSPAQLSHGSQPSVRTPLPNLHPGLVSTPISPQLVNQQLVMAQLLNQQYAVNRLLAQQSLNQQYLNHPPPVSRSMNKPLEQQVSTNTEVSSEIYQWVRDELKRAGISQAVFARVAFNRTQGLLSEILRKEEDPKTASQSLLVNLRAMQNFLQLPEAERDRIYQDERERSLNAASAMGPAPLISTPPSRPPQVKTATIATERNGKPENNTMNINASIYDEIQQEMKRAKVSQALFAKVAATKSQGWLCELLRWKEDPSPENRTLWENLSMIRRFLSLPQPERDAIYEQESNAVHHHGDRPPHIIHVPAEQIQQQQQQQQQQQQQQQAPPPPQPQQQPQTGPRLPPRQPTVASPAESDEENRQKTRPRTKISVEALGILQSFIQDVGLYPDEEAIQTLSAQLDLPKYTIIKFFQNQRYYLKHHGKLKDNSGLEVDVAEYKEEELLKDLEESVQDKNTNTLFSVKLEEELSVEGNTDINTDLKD
UniProt P84103: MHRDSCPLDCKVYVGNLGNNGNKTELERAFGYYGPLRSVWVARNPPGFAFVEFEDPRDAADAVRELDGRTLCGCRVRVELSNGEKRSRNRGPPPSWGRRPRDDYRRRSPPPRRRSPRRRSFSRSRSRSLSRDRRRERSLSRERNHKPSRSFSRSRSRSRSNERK
UniProt P63104: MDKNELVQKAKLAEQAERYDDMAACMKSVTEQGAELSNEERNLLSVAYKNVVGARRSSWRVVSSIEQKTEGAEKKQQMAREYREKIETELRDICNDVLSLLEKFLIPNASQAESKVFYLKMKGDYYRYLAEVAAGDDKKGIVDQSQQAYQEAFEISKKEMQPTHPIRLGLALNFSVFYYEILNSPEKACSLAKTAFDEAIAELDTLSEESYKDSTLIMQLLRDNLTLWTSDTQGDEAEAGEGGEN
UniProt P62258: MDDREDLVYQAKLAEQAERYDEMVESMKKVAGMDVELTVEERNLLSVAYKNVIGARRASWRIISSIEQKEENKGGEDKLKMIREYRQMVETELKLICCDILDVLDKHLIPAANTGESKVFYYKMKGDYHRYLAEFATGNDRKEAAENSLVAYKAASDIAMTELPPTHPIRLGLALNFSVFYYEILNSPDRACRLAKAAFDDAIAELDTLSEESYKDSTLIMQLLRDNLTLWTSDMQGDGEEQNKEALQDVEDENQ

log2 ratio of iodoacetamide-alkyne labeling, inactive:
UniProt P62987_C91 0.241, UniProt P62857_C27 0.426, EXOSC10 C612 (UniProt Q01780) 0.0177, UniProt P78527_C3347 0.11, MRPS34 C93 (UniProt P82930) 0.293, UniProt P68363_C315 0.0853, MPP1 C454 (UniProt Q00013) -0.0856, PFKP C360 (UniProt Q01813) 0.191, EEF1A1 C363 (UniProt P68104) 0.0273, RPS27A C121 (UniProt P62979) 0.0802, UniProt P78527_C2469 0.365, HNRNPU C562 (UniProt Q00839) 0.232, UniProt P62913_C25 0.16, UniProt P63244_C286 0.199, SKP1 C160 (UniProt P63208) 0.27, UniProt P63241_C129 -0.477, OGDH C566 (UniProt Q02218) -0.206, SATB1 C529 (UniProt Q01826) 0.279, UniProt P84103_C10 0.0731, UniProt P62701_C181 0.0942, YWHAZ C25 (UniProt P63104) 0.104, CLTC C617 (UniProt Q00610) 0.0726, UniProt P62258_C98 0.152
